Among the data in article PMC10866885 are binding values, retold here.

Chains of the proteins cited; added tags and fusions are not shown. Lines headed by an entry give the natural chain unless they say otherwise; changes in a name come on top. A line that says so, or that is headed by a name, gives the form on record, which may keep a tag or linker.
VEGFR2 C482R mutant tagged with mCherry (P35968, form named): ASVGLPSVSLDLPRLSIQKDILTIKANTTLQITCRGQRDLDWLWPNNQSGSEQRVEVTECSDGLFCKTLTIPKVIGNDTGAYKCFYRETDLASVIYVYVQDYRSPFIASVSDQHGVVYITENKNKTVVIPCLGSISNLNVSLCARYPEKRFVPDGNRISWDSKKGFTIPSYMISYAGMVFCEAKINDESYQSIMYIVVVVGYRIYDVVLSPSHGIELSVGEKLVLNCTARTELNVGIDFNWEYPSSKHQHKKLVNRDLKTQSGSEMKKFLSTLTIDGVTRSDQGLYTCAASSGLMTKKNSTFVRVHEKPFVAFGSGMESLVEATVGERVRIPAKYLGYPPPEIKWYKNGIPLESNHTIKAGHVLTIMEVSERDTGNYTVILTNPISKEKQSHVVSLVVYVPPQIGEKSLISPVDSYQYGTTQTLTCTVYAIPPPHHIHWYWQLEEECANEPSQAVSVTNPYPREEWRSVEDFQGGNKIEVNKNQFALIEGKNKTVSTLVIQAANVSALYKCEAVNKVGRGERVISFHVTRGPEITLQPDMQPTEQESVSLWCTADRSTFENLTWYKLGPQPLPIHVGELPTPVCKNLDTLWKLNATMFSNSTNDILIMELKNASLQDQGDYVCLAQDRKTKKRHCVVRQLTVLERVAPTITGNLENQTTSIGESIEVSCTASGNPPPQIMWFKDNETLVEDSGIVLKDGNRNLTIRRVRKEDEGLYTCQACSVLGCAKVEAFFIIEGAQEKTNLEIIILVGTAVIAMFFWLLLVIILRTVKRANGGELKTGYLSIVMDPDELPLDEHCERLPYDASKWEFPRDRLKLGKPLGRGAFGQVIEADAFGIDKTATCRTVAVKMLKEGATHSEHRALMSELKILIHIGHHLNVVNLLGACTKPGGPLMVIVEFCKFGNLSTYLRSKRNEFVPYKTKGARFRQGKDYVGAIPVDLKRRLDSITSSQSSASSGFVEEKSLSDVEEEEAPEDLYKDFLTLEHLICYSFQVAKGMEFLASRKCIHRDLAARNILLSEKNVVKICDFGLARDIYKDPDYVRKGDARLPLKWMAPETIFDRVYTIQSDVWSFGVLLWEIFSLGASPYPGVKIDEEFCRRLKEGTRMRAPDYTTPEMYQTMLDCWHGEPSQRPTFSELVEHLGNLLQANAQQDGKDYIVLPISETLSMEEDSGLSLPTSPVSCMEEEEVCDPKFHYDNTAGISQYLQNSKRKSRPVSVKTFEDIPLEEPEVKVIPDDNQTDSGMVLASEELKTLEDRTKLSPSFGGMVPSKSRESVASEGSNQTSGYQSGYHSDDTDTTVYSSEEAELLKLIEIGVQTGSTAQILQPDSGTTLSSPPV

Results are given in words; binding and its absence hold for the method and conditions named. Some entries that bind do so weakly or less than the wild type.

For the assay, the target named is VEGFR2 C482R mutant tagged with mCherry (human) (UniProt P35968). Briefly: FRAP (diffusion coefficient on the plasma membrane); mCherry-fused receptor in transiently transfected, serum-starved CHO cells, without VEGF165 (for the GPA controls no ligand is named); room temperature; oligomeric state derived from D_confocal against monomer and dimer controls.

In the case of “VEGFR2 C482R mutant tagged with mCherry (from UniProt P35968 20-1356) (receptor)”, the binding entry was “binds”.
